{"source": "patent US20170224819A1", "about": "“Therapeutic Combinations of a BTK Inhibitor, a PI3K Inhibitor, a JAK-2 Inhibitor, and/or a CDK 4/6 Inhibitor” (Acerta Pharma B.V., priority 2014, published 2017)", "system": "chronic lymphocytic leukemia (CLL)", "assay": "Clinical study of Formula (XVIII) in relapsed/refractory CLL"}
{"smiles": "CC#CC(=O)N1CCC[C@H]1c1nc(-c2ccc(C(=O)Nc3ccccn3)cc2)c2c(N)nccn12", "note": "[Formula (XVIII), (S)-4-(8-amino-3-(1-(but-2-ynoyl)pyrrolidin-2-yl)imidazo[1,5-a]pyrazin-1-yl)-N-(pyridin-2-yl)benzamide]", "values": [{"measurement": "Median Cycles", "setting": "100 mg BID (N = 3)", "value": 5.2, "unit": "cycles"}, {"measurement": "Median Cycles", "setting": "100 mg QD (N = 8)", "value": 10.0, "unit": "cycles"}, {"measurement": "Median Cycles", "setting": "175 mg QD (N = 8)", "value": 8.6, "unit": "cycles"}, {"measurement": "Median Cycles", "setting": "250 mg QD (N = 7)", "value": 7.0, "unit": "cycles"}, {"measurement": "Median Cycles", "setting": "400 mg QD (N = 5)", "value": 5.0, "unit": "cycles"}, {"measurement": "Median Cycles", "setting": "All Cohorts (N = 31)", "value": 7.3, "unit": "cycles"}]}
